Values quoted from earlier work as cited in patent US20100159042A1, “CAPSICUM BASED MILDEW KILLING SOLUTION AND METHOD OF USE” (priority 2008, published 2010).
For at least one compound, name, drawing or mass did not settle the structure.

Conditions: cited from earlier work

| Structure (SMILES) | Pungency |
| --- | --- |
| COc1cc(CNC(=O)CCCCCCCC(C)C)ccc1O [Homodihydrocapsaicin] | 86 × 100,000 SU |
| COc1cc(CNC(=O)CCCCC/C=C/C(C)C)ccc1O [Homocapsaicin] | 86 × 100,000 SU |
